# Reference: PubChem BioAssay AID504467 (National Center for Advancing Translational Sciences (NCATS), 2011)
# Hit rate of the full screen: of about 330,000 compounds, about 7,700 (2.3%) were called active. Inconclusive means that the source gave no clear call. Such entries were picked first, then a sample of the others. The call rests on the fitted dose curve; in most records, active means well fitted inhibition curve with a large enough effect; inconclusive means small, poorly fitted or top-dose-only effect, or effect the other way; inactive means flat fitted curve, though single readings scatter. A potency beside an inconclusive call is a rough fit, not a confirmed value.
# Assay: qHTS screen for small molecules that inhibit ELG1-dependent DNA repair in human embryonic kidney (HEK293T) cells expressing luciferase-tagged ELG1; further: nearly all actives have a fitted effect of over 55% in size
# Conditions: HEK293T ELG1-luciferase reporter, luminescence, 16 h, DNA damage induced by 5-fluorouridine; series mostly up to 46.1 µM
# Procedure, shortened: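 HEK293T cells expressing luciferase-tagged ELG1 (2,000/well) received 5-Fluorouridine plus compound or DMSO for 16 hr at 37 °C. Luciferase was read by ONE-Glo luminescence after 30 min at room temperature.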
# Potency means the concentration at half of the fitted maximal effect.
row,Structure (SMILES),Potency
1,COc1ccc(CC(=O)NCc2nnc(SCC(=O)Nc3cccc(F)c3)n2C)cc1,inactive
2,Cc1onc(-c2ccccc2Cl)c1C(=O)NNC(=O)c1ccccc1F,"inconclusive: 16.4 µM [activator, partial curve]"
3,Cc1ccc(N=Cc2c(O)n(-c3ccc4c(c3)OCO4)c(=O)c3ccccc23)cc1,"inconclusive: 5.8 µM [inhibitor, partial curve, poor fit]"
4,Cc1ccc(Cc2c[nH]c(=S)s2)cc1,inactive
5,O=C(CN1CCCC1c1cccs1)Nc1cccc(S(=O)(=O)N2CCCC2)c1 (centres undefined),"inconclusive: 31.6 µM [inhibitor, single point]"
6,S=C(NCC1CCCO1)N1CCN(c2cccc(Cl)c2)CC1 (centres undefined),"inconclusive: 23.1 µM [inhibitor, single point]"
7,CCc1ccc(NC(=O)/C(C#N)=C/c2cn(CC(=O)O)c3ccccc23)cc1,inactive
8,Clc1ccc(-c2csc(N3CCSCC3)n2)cc1,"inconclusive: 20.6 µM [activator, partial curve]"
9,CCc1cc2c(cc3c(=O)n(CC(=O)NCCCN4CCCCCC4)nc(CC)n32)s1,inactive
10,COc1cc(CNc2ccc(C)c(C)c2)cc(OC)c1OC,"inconclusive: 3.66 µM [inhibitor, partial curve]"
11,CCCC(C)C(=O)Nc1ccncc1 (centres undefined),"inconclusive: 1.64 µM [inhibitor, partial curve, poor fit]"
12,COc1ccc(CNC(=O)CN2CCC(C(=O)c3ccc(OC)cc3)CC2)cc1,"inconclusive: 28.2 µM [inhibitor, single point]"
13,CCN1CCN(C(=O)/C=C/c2ccc(C)cc2)CC1,inactive
14,CS(=O)(=O)N(CC(=O)Nc1cc(Cl)ccc1Cl)c1ccccc1,inactive
15,CCCOC(=O)c1ccc(Nc2cc(C)nc3ncnn23)cc1,"inconclusive: 20.6 µM [activator, partial curve, poor fit]"
16,CC1(OC(=O)C2CCCC2)C(=O)C=C2C=C(c3ccsc3)N(C(CO)CO)C=C2C1=O (centres undefined),"inconclusive: 0.517 µM [inhibitor, partial curve, poor fit]"
17,COc1cccc(/C=C(/CC(=O)Nc2ccc(N3CCOCC3)cc2)c2nc3ccccc3s2)c1,"inconclusive: 10.3 µM [activator, partial curve]"
18,COc1cccc(C(=O)Nc2cc3c(cc2Cl)OCCCO3)c1,"inconclusive: 9.2 µM [activator, partial curve]"
19,NC(=O)c1ccsc1NC(=O)CSc1n[nH]c(N)n1,"inconclusive: 23.1 µM [activator, single point]"
20,COc1ccccc1CN(C)C(=O)C1(c2ccc(Cl)cc2)CC1,"inconclusive: 18.4 µM [inhibitor, single point]"
21,COc1ccc(-n2cc(CN(C)C(C)c3ccncn3)c(-c3cccc(F)c3)n2)cc1 (centres undefined),"inconclusive: 29.1 µM [inhibitor, single point]"
22,CN(c1cccc(NC(=O)c2ccc(Cl)c(S(=O)(=O)N3CCOCC3)c2)c1)S(C)(=O)=O,active: 23.1 µM

row,Structure (SMILES),Potency
1,Cc1ccc(S(=O)(=O)N(CC(=O)NC2CCCCCC2)c2ccccc2F)cc1,inactive
2,COc1ccc(/C=C(/C(=O)Nc2ccccc2C(=O)N2CCCC2)c2ccccc2)cc1,active: 23.1 µM
3,O=C(NC1CCCC1)C(c1cccnc1)N(Cc1ccccc1F)C(=O)c1csnn1 (centres undefined),inactive
4,CCN(CC)c1ccc(C=C2C(=O)OC3(CCCCC3)OC2=O)cc1,"inconclusive: 23.1 µM [activator, partial curve, poor fit]"
5,COc1ccc(NS(=O)(=O)c2cc(NC(=O)c3ccccn3)ccc2OC)cc1Br,"inconclusive: 25.9 µM [inhibitor, single point]"
6,COc1ccc2c(c1)C(=O)/C(=C/C=C/c1ccccc1)CC2,"inconclusive: 9.2 µM [activator, partial curve]"
7,Cc1cnc(NC(=O)Cc2ccc(Br)cc2)s1,inactive
8,N#CCSc1nc2c(c(=O)n1Cc1ccco1)C1(CCCC1)Cc1ccccc1-2,"inconclusive: 18.4 µM [inhibitor, single point]"
9,COc1cccc(-c2csc(N3CCN(C(=O)Nc4ccc(F)cc4)CC3)n2)c1,"inconclusive: 18.4 µM [inhibitor, single point]"
10,Cc1cccc(CN2CCN(Cc3nc4c(s3)CCCC4)CC2CCO)n1 (centres undefined),inactive
11,CC(C)OCCCNC(=O)NC12CC3CC(CC(C3)C1)C2,"inconclusive: 20.6 µM [activator, partial curve, poor fit]"
12,NCc1oc(-c2ccccc2)cc1C(=O)O,"inconclusive: 0.259 µM [activator, full curve, poor fit]"
13,CCC(=O)Nc1cccc(NC(=S)NC(=O)c2ccccc2Cl)c1,"inconclusive: 10.3 µM [activator, partial curve]"
14,CCn1c(=O)cc(SCC(=O)NCc2ccccn2)c2ccccc21,"inconclusive: 25.9 µM [activator, partial curve, poor fit]"
15,CC(=O)Nc1cccc(NC(=O)COc2ccc3c(c2)CCC3)c1,"inconclusive: 3.55 µM [activator, full curve]"
16,Cc1nnc2n1N=C(c1ccc3c(c1)NC(=O)CO3)CS2,"inconclusive: 32.6 µM [activator, single point]"
17,Cc1nn2c(=O)cc(COC(=O)c3ccc(S(=O)(=O)N4CCCCC4)cc3)nc2s1,inactive
18,CC1(C)Cc2c(c(=S)nc(-c3ccccc3)n2CCO)CO1,"inconclusive: 25.9 µM [inhibitor, single point]"
19,CCOC(=O)CN(C(=O)COC(=O)C1=NNC(=O)CC1)c1ccc(F)cc1,"inconclusive: 16.4 µM [activator, partial curve]"
20,CC(=O)Nc1ccc(NC(=O)CCCNC(=O)c2ccc(Cl)cc2)cc1,"inconclusive: 14.6 µM [activator, partial curve]"
21,CCN(CC)S(=O)(=O)c1ccc(Oc2ccccc2OC)cc1,"inconclusive: 18.3 µM [inhibitor, single point]"
22,COc1ccccc1CNC(=O)c1cc(-c2ccccc2C)nn1CC1CC(c2cccnc2)=NO1 (centres undefined),"inconclusive: 18.3 µM [inhibitor, partial curve]"

# Copied from the list.
# Under Potency, `Cc1ccc(N=Cc2c(O)n(-c3ccc4c(c3)OCO4)c(=O)c3ccccc23)cc1` shows inconclusive: 5.8 µM [inhibitor, partial curve, poor fit]
# Under Potency, `COc1cc(CNc2ccc(C)c(C)c2)cc(OC)c1OC` shows inconclusive: 3.66 µM [inhibitor, partial curve]
# Under Potency, `NCc1oc(-c2ccccc2)cc1C(=O)O` shows inconclusive: 0.259 µM [activator, full curve, poor fit]
# Under Potency, `COc1ccc(/C=C(/C(=O)Nc2ccccc2C(=O)N2CCCC2)c2ccccc2)cc1` shows active: 23.1 µM
